From PubChem BioAssay AID1487 (National Center for Advancing Translational Sciences (NCATS), 2009) come the findings set out here.

A short description of the experiment: qHTS Assay for Modulators of Lamin A Splicing. The note with it: HeLa LMNA splicing GFP/RFP minigene ratio, 48 h. The method, boiled down:
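S3 HeLa cells stably expressing lamin A-EGFP splicing minigene plus DsRed2, 600 cells/well, 48 h compound exposure at 37C. Laser-scanning cytometry; analysed as GFP (500-530 nm)/RFP (575-640 nm) total intensity ratio; 0.5% DMSO vehicle.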
(In general: In qHTS, concentration-response curves come from the screen itself.)

Where [1] appears, read: measured here: GFP splicing reporter channel.
Where [2] appears, read: measured here: RFP viability control channel.

The other results are listed elsewhere or left out. Shown are side measurements of this screen, not its main read-out; they come without a call. Most of these compounds were active or inconclusive in the main read-out, so they are no random draw. The note in brackets gives the kind of curve behind each potency; many fits are weak.

As to `COc1cccc(OC)c1C(=O)Nc1cc(C)nn1-c1nc2ccccc2[nH]1`, the AC50 (in general, the concentration giving half of the maximal activity seen) was 12.6 µM [rising, single point] under setting [1] and 3.98 µM [rising, single point] under setting [2]. Turning to `O=C(OCn1ncc(Br)c(Br)c1=O)c1c(F)cccc1F`, the AC50 under setting [2] is 35.5 µM [rising, single point]. Still for that read-out and setting: the value for `COc1cc(OC)c(N(C)C(=O)Nc2cn(CC(C)C)c(=O)c3ccccc23)cc1Cl` was 0.891 µM [falling, full curve, poor fit]. Still for that read-out and setting: with `CN(C)S(=O)(=O)c1ccc(C(=O)NC(=O)CSc2ccccc2)cc1` the figure was 0.126 µM [falling, full curve, poor fit]; with `CCCc1nn2c(=O)cc(COC(=O)CNC(=O)COc3ccc(C)cc3)nc2s1`, 0.01 µM [falling, full curve, poor fit]. Still for that read-out and setting: with `O=S(=O)(NCC1CCCO1)c1ccc(S(=O)(=O)N2CCCC2)cc1` (centres undefined) the figure was 0.112 µM [falling, full curve, poor fit]. Regarding `CC(C)C(=O)NC(c1ccco1)c1c(O)ccc2ccccc12` (centres undefined), the AC50 under setting [2] is 25.1 µM [rising, single point].

`COc1ccc(NC(=O)/C=C/c2ccc(F)cc2)cn1`: the AC50 under setting [2] was 14.1 µM [rising, partial curve]. For `CSc1nc2ccccc2n1CC(=O)Nc1c(C)cccc1C`, the AC50 under setting [2] was 22.4 µM [rising, partial curve].

With `Cc1ccc(-c2nc(C)c(CCNC(=O)c3ccccc3Br)s2)cc1`, the AC50 is 14.1 µM [falling, partial curve, poor fit] under setting [1] and 35.5 µM [falling, single point] under setting [2].

As to `CCN1CCN(C(=S)Nc2ccc(Cl)c(Cl)c2)CC1`, the AC50 reads like this: under setting [1], 3.16 µM [rising, partial curve]; under setting [2], 11.2 µM [rising, partial curve]. For the compound `O=CNCC(=O)NC1CCCCCC1`, the AC50 under setting [2] was 5.62 µM [falling, partial curve]. Still for that read-out and setting: the value for `CCN(CC)S(=O)(=O)c1cc(-c2nnc(-c3ccc(Br)cc3)o2)ccc1Br` was 15.8 µM [rising, single point]. On the same count and under the same terms, the value for `CCOC(=O)C1(Cc2ccc(O)cc2)NC(c2ccccc2F)C2C(=O)N(C)C(=O)C21` (centres undefined) was 25.1 µM [rising, single point]; that for `Cc1ccc(Nc2ccc(C(N)=O)cc2[N+](=O)[O-])cc1C` was 17.8 µM [rising, single point]; that for `O=c1cc(N2CCN(c3cccc(Cl)c3)CC2)[nH]c(=O)n1C1CCCCC1` was 5.01 µM [falling, full curve, poor fit]. Take `COc1cccc(Cn2c(=O)c(-c3ccccc3)nc3cncnc32)c1`: the AC50 was 11.2 µM [falling, partial curve] under setting [1] and 17.8 µM [falling, single point] under setting [2].

Turning to `O=C(N/N=C/c1c(O)n(Cc2ccccc2)c(=O)c2ccccc12)c1cccnc1`, the AC50 under setting [2] was 35.5 µM [rising, single point].

As for `Cc1ccccc1-c1ccc(Nc2ccc(N3CCOCC3)cc2)nn1`, the half-maximal activity concentration (AC50) runs as follows: under setting [1], 15.8 µM [rising, partial curve, poor fit]; under setting [2], 31.6 µM [rising, single point]. Turning to `O=C(CNC(=O)c1ccccc1Cl)N/N=C/c1ccc([N+](=O)[O-])s1`, the AC50 under setting [2] was 14.1 µM [rising, partial curve]. As to `CC(C)(C)NS(=O)(=O)c1ccc(NC(=O)C(Sc2ccccc2)c2ccccc2)cc1` (centres undefined), the AC50 is 22.4 µM [falling, single point] under setting [1] and 35.5 µM [falling, single point] under setting [2]. In the case of `Cc1c(C(=O)Nc2cc(F)ccc2F)sc2nc(-c3ccc(F)cc3)cn12`, under setting [1], the AC50 was 0.0316 µM [falling, full curve, poor fit].

In the case of `COc1ccc(OC)c(NS(=O)(=O)c2ccc(NC(=O)C3COc4ccccc4O3)cc2)c1` (centres undefined), the AC50 under setting [1] was 15.8 µM [rising, single point] and the AC50 under setting [2] is 22.4 µM [rising, single point]. Consider `CCn1cc(C(=O)NCCCN(C)c2ccccc2)c(=O)c2cc(S(=O)(=O)N(C)C)ccc21`, for which the AC50 under setting [2] was 25.1 µM [rising, single point]. As to `CCCCCCOc1ccc(C2C(=O)N(C3CCCCC3)CC(=O)N2C2CCCCC2)cc1` (centres undefined), the half-maximal activity concentration (AC50) under setting [1] was 0.398 µM [falling, partial curve] and the AC50 under setting [2] is 0.282 µM [falling, full curve, poor fit]. For `O=c1c2ccccc2nc2n1CCCS2`, the AC50 by setting is: under setting [1], 0.398 µM [falling, full curve, poor fit]; under setting [2], 1 µM [falling, partial curve, poor fit]. Regarding `CC(C)(C)c1ccc(CNc2ccc([N+](=O)[O-])cn2)cc1`, the AC50 runs as follows: under setting [1], 22.4 µM [rising, single point]; under setting [2], 35.5 µM [rising, single point]. Take `CN1/C(=C\C(=O)c2cncc(Br)c2)C(C)(C)c2ccccc21`: the AC50 runs as follows: under setting [1], 11.2 µM [rising, partial curve]; under setting [2], 17.8 µM [rising, partial curve]. Consider `COc1cc(/C=N/NC(=O)CSc2cc(C)c(Br)cc2C)ccc1O`, for which the AC50 under setting [2] was 12.6 µM [rising, single point]. The same measure, in the same setting: the value for `CCc1ccc(C2=C/C(=C/c3cccnc3)C(=O)O2)cc1` was 35.5 µM [rising, single point]; that for `Cc1cc2cc3c(cc2nc1SCC(=O)N1c2ccccc2CC1C)OCO3` (centres undefined) was 15.8 µM [rising, single point].

Take `Cc1ccc(S(=O)(=O)N2CCOCC2)cc1C(=O)N1c2ccccc2Sc2ccccc21`: the half-maximal activity concentration (AC50) under setting [2] was 35.5 µM [rising, single point]. As for `CCOC(=O)N1CCN(C(=O)CCCCn2c(=S)[nH]c3ccsc3c2=O)CC1`, the AC50 by setting is: under setting [1], 0.2 µM [rising, full curve, poor fit]; under setting [2], 7.94 µM [rising, full curve, poor fit]. Consider `OCCN1CCN(CCOc2ccccc2-c2ccccc2)CC1`, for which the AC50 under setting [1] was 14.1 µM [rising, partial curve] and the AC50 under setting [2] was 0.0501 µM [rising, full curve]. `CC1(C)CC2CC(C)(CN2C(=S)NC(=O)c2ccccc2Cl)C1` (centres undefined): under setting [2], the AC50 is 35.5 µM [rising, single point]. The same measure, in the same setting: with `Cc1nc2c3ccccc3nc(SCC(=O)c3ccc(Cl)cc3)n2n1` the figure was 35.5 µM [rising, single point].
